Measured values from US20220110919A1, “METHODS OF MODULATING LEUKOCYTES ACTIVATION AND THROMBOCYTE CLEARANCE WITH INHIBITORS OF SPECIFIC NEURAMINIDASE ISOENZYMES” (The Governors of the University of Alberta, priority 2018, published 2022).
Some results were stated once for a whole list of compounds, not compound by compound.

tested on: T1, neu1/neu3; assay: IC50 against a neu1/neu3; type: biochemical, human; conditions: text statement of bound, b73
T1 construct: NEU3 and NEU2 were expressed as N-terminal MBP fusion protein in E. coli; NEU4 was expressed as a GST fusion protein in E. coli; fused on or other part: MBP at the N-terminus (NEU3), GST (NEU4), His tag (NEU1)

SMILES | IC50 [nM]
CCCCC(C)C(=O)N[C@H]1[C@H]([C@H](O)[C@H](O)CO)OC(C(=O)O)=C[C@@H]1O (mixture of isomers) [compound 72, 5-(2-Methyl)hexanamido(S/R)-2,6-anhydro-3,5-dideoxy-d-glycero-d-galacto-non-2-enonic acid] | < 1000
CCCCC(C)C(=O)N[C@H]1[C@H]([C@H](O)[C@H](O)CNC(C)=O)OC(C(=O)O)=C[C@@H]1O (mixture of isomers) [compound 74, 5-(2-Methyl)hexanamido(S/R)-9-acetanamido-2,6-anhydro-3,5-dideoxy-d-glycero-d-galacto-non-2-enonic acid] | < 1000
CCCCC(CC)C(=O)N[C@H]1[C@H]([C@H](O)[C@H](O)CO)OC(C(=O)O)=C[C@@H]1O (mixture of isomers) [compound 75, 5-(2-Ethyl)hexanamido(S/R)-2,6-anhydro-3,5-dideoxy-d-glycero-d-galacto-non-2-enonic acid] | < 1000
CC(=O)N[C@@H]1C(N=[N+]=[N-])C=C(C(=O)O)OC1CNOCc1ccccc1 (stereo in doubt) [5c] | < 1000
CC(=O)N[C@@H]1C(NC(=N)N)C=C(C(=O)O)OC1C(O)C(O)Cn1cc(-c2ccc(C(=O)O)cc2)nn1 (stereo partly drawn) [8a, 5-Acetamido-9-(4-carboxyphenyl)-2,6-anhydro-4-guanidino-3,4,5-trideoxy-D-glycero-D-galacto-non-2-enonic acid] | < 1000
CCCCC(=O)N[C@@H]1C(O)C=C(C(=O)O)OC1C(O)C(O)CO (stereo partly drawn) [compound 31, 5-Pentanamido-9-(4-biphenyl)-2,6-anhydro-3,5-dideoxy-D-glycero-D-galacto-non-2-enonic acid] | < 1000
CCCCCC(=O)N[C@H]1[C@H]([C@H](O)[C@H](O)CO)OC(C(=O)O)=C[C@@H]1O [compound 32, 5-Hexanamido-2,6-anhydro-3,5-dideoxy-D-glycero-D-galacto-non-2-enonic acid] | < 1000
CCCCC(=O)N[C@H]1[C@H]([C@H](O)[C@H](O)CNC(C)=O)OC(C(=O)O)=C[C@@H]1O [compound 67, 5-Pentanamido-9-acetamido-2,6-anhydro-3,5-dideoxy-D-glycero-D-galacto-non-2-enonic acid] | < 1000
CCCCCC(=O)N[C@H]1[C@H]([C@H](O)[C@H](O)CNC(C)=O)OC(C(=O)O)=C[C@@H]1O [compound 68, 5-Hexanamido-9-acetamido-2,6-anhydro-3,5-dideoxy-D-glycero-D-galacto-non-2-enonic acid] | < 1000
CCCCCC(=O)N[C@H]1[C@H]([C@H](O)[C@H](O)CNC(=O)CC)OC(C(=O)O)=C[C@@H]1O [compound 69, 5-Hexanamido-9-propionamido-2,6-anhydro-3,5-dideoxy-d-glycero-d-galacto-non-2-enonic acid] | < 1000
